Test results from patent US20250340635A1.
No constants are given. Whether binding was seen depends on the method and setting. Some binding calls cover weakened binding; strength is not graded here.

Sequences of proteins named here, by UniProt entry; tags and fusion partners are left off. A change or cut given only in a name is not applied to a line headed by its entry. Residues count along the entry.
UniProt O76036: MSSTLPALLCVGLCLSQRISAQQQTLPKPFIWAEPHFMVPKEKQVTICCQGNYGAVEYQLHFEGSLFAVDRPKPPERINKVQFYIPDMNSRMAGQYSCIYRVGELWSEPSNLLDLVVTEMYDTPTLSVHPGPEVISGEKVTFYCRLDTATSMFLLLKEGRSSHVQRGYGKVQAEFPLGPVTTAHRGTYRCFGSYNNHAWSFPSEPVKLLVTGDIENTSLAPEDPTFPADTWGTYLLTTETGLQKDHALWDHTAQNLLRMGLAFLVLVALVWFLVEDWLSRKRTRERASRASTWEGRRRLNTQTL
UniProt Q95JB9, residues 22-257: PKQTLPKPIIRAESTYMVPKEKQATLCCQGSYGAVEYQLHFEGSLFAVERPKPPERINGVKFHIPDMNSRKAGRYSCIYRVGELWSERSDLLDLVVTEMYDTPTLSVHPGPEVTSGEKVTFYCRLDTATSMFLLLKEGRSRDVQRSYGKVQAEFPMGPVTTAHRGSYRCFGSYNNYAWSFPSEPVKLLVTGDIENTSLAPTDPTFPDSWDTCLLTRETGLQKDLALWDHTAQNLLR

Legend:
[1] = biological target: human NKp46-His fusion protein (human) (UniProt O76036); experiment: ELISA, NKp46-His coated, anti-human HRP
[2] = biological target: cynomolgus monkey-His fusion protein (cynomolgus monkey) (UniProt Q95JB9); experiment: ELISA, NKp46-His coated, anti-human HRP

- binding [1]: binds
- binding [2]: binds
B1: IN0321 (antibody, human IgG1, kappa, L234A L235A, V domains shown)
VH: QVQLQQPGSELVRPGASVKLSCKASGYTFTSYWMHWVKQRPGQGLEWIGTIYPGSDITNYDEKFKNKATLTVDTSSSTAYMQLSSLTSEDSAVYYCTRDGRFANWGQGTLVTVSA
VL: EIQMTQSPSSLSASLGERVSLTCRASQDIGSSLNWLQQEPDGTIKRLIYATSSLDSGVPKRFSGSRSGSDYSLTISSLESEDFVDYYCLQYASSPYTFGGGTKLEIKR
